Data reported in the supplement of paper PMC10735217.
Several values for one entry are separate records, joined by “and”; a condition that tells them apart may be missing. Equal values may be shown once. Where a name gives a salt, the structure may show the parent alone. The list shows a part of the results. Single values are uncertain here, since repeats match poorly.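 Human kidney-derived cells stably carry a construct in which eight TEAD-binding elements drive luciferase, measured by luminescence in a drug-repurposing library screen. A hit is any compound whose signal exceeds the plate mean by more than five robust Z scores.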

Tested on: HEK293A TEAD-LUC reporter
Test: TEAD-luciferase reporter activity (YAP activation), robust Z score vs plate; higher = stronger YAP/TEAD activation
Conditions: 24 h

Compound	TEAD-luciferase reporter activity (compound concentration: 200 nM)	TEAD-luciferase reporter activity (compound concentration: 10 uM)	TEAD-luciferase reporter activity (compound concentration: 2 uM)
CCc1ccc([C@@H]2O[C@H](CO)[C@@H](O)[C@H](O)[C@H]2O)cc1Cc1ccc2c(c1)OCCO2 [Licogliflozin]	inactive: 0.138	inactive: 0.0492	–
O=C1NC2(CCN(Cc3cccc4ccccc34)CC2)Oc2ccccc21	inactive: -0.24	inactive: 0.0471	–
CN1C(=O)[C@H](O)C(c2ccccc2)C1C(O)c1ccccc1 (some centres not stated)	inactive: -0.61	inactive: -0.463	inactive: -0.436
CN[C@H](CC(C)C)C(=O)N[C@@H](C(=O)N[C@H](Cc1ccccc1)C(=O)N[C@H](Cc1ccccc1)C(=O)N[C@H](CC(C)C)C(N)=O)C(C)C	inactive: 4.04	inactive: 1.47	inactive: 0.831
CCN(CC)CCn1c(=O)c(Cc2cc(OC)c(OC)c(OC)c2)nc2ccccc21	inactive: 0.194	inactive: -1.09	inactive: -2.54
CCc1[nH]c(=O)[nH]c1C(=O)c1ccc(-n2ccnc2)cc1	inactive: 0.316	inactive: -1.15	inactive: -1.3
COc1cccc(CN2CCC(N3CCCNC3=O)CC2)c1	inactive: 1.21	inactive: 2.18	–
CN(CCOC(=O)COc1ccc(Cl)cc1)C12C[C@H]3C[C@@H](C1)C[C@@H](C2)C3	inactive: -3.16	inactive: -2.22	inactive: -1.73
[Na][Cl]	inactive: 1.29	inactive: -0.326	inactive: -1.33
CCCCOc1ccc(C(=O)CCN2CCCCC2)cc1 [dyclonine HCl, BEMA, Atrix]	inactive: -0.108	inactive: 0.567	–
CCCCOc1ccc(C(=O)CCN2CCCCC2)cc1 [dyclonine HCl, BEMA]	–	–	inactive: -1.17
O=P(O)(O)OC[C@H]1O[C@@H](n2cnc3c(NCc4ccccc4)ncnc32)[C@H](O)[C@@H]1O	inactive: -0.435	inactive: 1.14	inactive: -0.132
Cc1ccc(C(=O)c2ccc(CC(=O)NCC(=O)O)n2C)cc1 [tolmetin glycine amide]	inactive: -0.22	inactive: 2.63	inactive: -0.213
Cc1ccc2c(c1)C(=O)c1ccccc1CS2	inactive: -0.467	inactive: -1.06	inactive: 1.1
CN(C)S(=O)(=O)c1cccc(-c2cs/c(=N\c3ccccc3)n2Cc2ccccc2)c1	inactive: -2.17	inactive: -1.4	inactive: -2.03
CN1CC[C@@]23NC(=O)C[C@@H](c4cc(Cl)ccc4O2)C3C1 (some centres not stated) [lortalamine]	inactive: -0.476	inactive: -0.884	inactive: -1.06
CN(C)[C@@H]1CCN(c2ccc3nc(-c4c(N)c5ccccc5[nH]c4=O)[nH]c3c2)C1	inactive: 0.172	active: 8.66	inactive: -1.08
Nc1nc2ccccc2n1Cc1ccc(C(F)(F)F)cc1	inactive: -0.925	inactive: 2.96	inactive: -2.04

Compound	TEAD-luciferase reporter activity (compound concentration: 200 nM)	TEAD-luciferase reporter activity (compound concentration: 10 uM)	TEAD-luciferase reporter activity (compound concentration: 2 uM)
c1ccc(P(CCCP(c2ccccc2)c2ccccc2)c2ccccc2)cc1	inactive: -1.16	inactive: -0.497	inactive: -0.8 and inactive: -0.862
O=C(Nc1cnc(Cl)nc1)c1ccc(F)c(F)c1	inactive: -0.862	inactive: 0.366	inactive: 3.45
CCNc1ncn(Cc2ccc(OC)c(OC3CCCC3)c2)c2nc(C(C)C)nc1-2	inactive: 0.239	inactive: 0.575	inactive: -0.317
COc1c(OCCCN2CCOCC2)ccc2c1N=C(NC(=O)c1cnc(N)nc1)N1CCN=C21 [Copanlisib hydrochloride]	inactive: -2.13	inactive: -0.137	inactive: -2.06
N[C@@H](Cc1c[nH]c2ccc(O)cc12)C(=O)O [L-5-hydroxytryptophan]	inactive: -0.858	inactive: -1.34	inactive: -0.202
NC(=O)c1cccc(-c2cccc(OC(=O)NC3CCCCC3)c2)c1	inactive: -0.26	inactive: 2.66	inactive: 2.77 and inactive: -0.24
Cc1ncccc1Oc1cc(Sc2ccccn2)cnc1Nc1nc([C@H](O)CO)ns1	inactive: -0.797	inactive: -0.995	inactive: -1.06
C[C@H](Nc1ncnc2[nH]cnc12)c1cc2cccc(Cl)c2c(=O)n1-c1ccccc1	inactive: 0.416	inactive: 0.688	inactive: -1.6
C/C(=C\c1ccc(C(=O)O)s1)c1cc2c(cc1C)C(C)(C)CCC2(C)C	inactive: -0.903	inactive: 2.71	inactive: 1.36
CO/N=C(/C(=O)NC1C(=O)N2C(C(=O)O)=C(COC(N)=O)CSC12)c1ccco1 (configuration not stated) [cefuroxime]	inactive: -0.508	active: 6.69	inactive: -0.378
Nc1cc(Cl)c(Sc2ccccc2Cl)c(Cl)c1	inactive: 1.72	inactive: -1.8	inactive: -1.5
CC1(NC2=NS(=O)(=O)c3sc(Cl)cc3N2)CC1	inactive: -2.27	inactive: -0.0693	inactive: -0.938
CCOC(=O)CSCCC1NC(C(=O)O)CS1 (configuration not stated) [letosteine]	inactive: 0.578	inactive: 0.556	inactive: -0.558
N=C(N)c1ccc(OCCCOc2ccc(C(=N)N)cc2)cc1	inactive: 0.663	inactive: -0.314	inactive: 1.46
COc1cc2c(cc1OC)[C@@H](Cc1ccc(O)c(Oc3ccc(C[C@H]4c5cc(OC)c(OC)cc5CCN4C)cc3)c1)N(C)CC2 [Dauricine]	inactive: -0.972	inactive: 4.14	inactive: -0.281
Cc1ccc(O)c(C(CCN(C(C)C)C(C)C)c2ccccc2)c1 (configuration not stated) [tolterodine]	inactive: -0.256	active: 8.3	inactive: 1.46
O=C(Nc1ccc(F)cc1)N1CCN(c2cccc(C(F)(F)F)c2)CC1	inactive: -0.975	inactive: -2.49	inactive: -2.57
CC(C)(C)c1ccc(S(=O)(=O)Nc2ccc(Cl)cc2C(=O)c2ccccc2)cc1	inactive: -0.0327	inactive: -2.12	inactive: -0.78

Laid out differently: results already given
Compound | TEAD-luciferase reporter activity (compound concentration: 200 nM) | TEAD-luciferase reporter activity (compound concentration: 10 uM) | TEAD-luciferase reporter activity (compound concentration: 2 uM)
CCc1ccc([C@@H]2O[C@H](CO)[C@@H](O)[C@H](O)[C@H]2O)cc1Cc1ccc2c(c1)OCCO2 [Licogliflozin] | inactive: 0.138 | inactive: 0.0492 | –
O=C1NC2(CCN(Cc3cccc4ccccc34)CC2)Oc2ccccc21 | inactive: -0.24 | inactive: 0.0471 | –
CN1C(=O)[C@H](O)C(c2ccccc2)C1C(O)c1ccccc1 (some centres not stated) | inactive: -0.61 | inactive: -0.463 | inactive: -0.436
CN[C@H](CC(C)C)C(=O)N[C@@H](C(=O)N[C@H](Cc1ccccc1)C(=O)N[C@H](Cc1ccccc1)C(=O)N[C@H](CC(C)C)C(N)=O)C(C)C | inactive: 4.04 | inactive: 1.47 | inactive: 0.831
CCN(CC)CCn1c(=O)c(Cc2cc(OC)c(OC)c(OC)c2)nc2ccccc21 | inactive: 0.194 | inactive: -1.09 | inactive: -2.54
CCc1[nH]c(=O)[nH]c1C(=O)c1ccc(-n2ccnc2)cc1 | inactive: 0.316 | inactive: -1.15 | inactive: -1.3
COc1cccc(CN2CCC(N3CCCNC3=O)CC2)c1 | inactive: 1.21 | inactive: 2.18 | –
CN(CCOC(=O)COc1ccc(Cl)cc1)C12C[C@H]3C[C@@H](C1)C[C@@H](C2)C3 | inactive: -3.16 | inactive: -2.22 | inactive: -1.73
[Na][Cl] | inactive: 1.29 | inactive: -0.326 | inactive: -1.33
